According to patent US20230192660A1 (priority 2020, published 2023):
At least one compound was matched to its structure with a doubt left.

How the values were obtained:
SARS-CoV-2 mature Mpro = SARS-CoV-2 mature Mpro (Severe acute respiratory syndrome coronavirus 2, UniProt P0DTD1); format: binding; conditions: 3 μM Mpro, 30 μM compound
SARSCoV2 = conditions: read-out: EC50 for blocking SARSCoV2 replication in cells; cited from earlier work

Row | SMILES | ΔTm Mpro (SARS-CoV-2 mature Mpro) [°C] | EC50 (SARSCoV2) [µM]
1 | CCC[C@H](NC(=O)[C@@H]1[C@H]2CCC[C@H]2CN1C(=O)[C@@H](NC(=O)[C@@H](NC(=O)c1cnccn1)C1CCCCC1)C(C)(C)C)C(=O)C(=O)NC1CC1 [Telaprevir, telaprevir, reference compound] | 0.9 | –
2 | CC(C)(C)NC(=O)N[C@H](C(=O)N1C[C@H]2[C@@H]([C@H]1C(=O)NC(CC1CCC1)C(=O)C(N)=O)C2(C)C)C(C)(C)C (stereo partly drawn) [Boceprevir, boceprevir, reference compound] | 3.6 | –
3 | O=c1c2ccccc2[se]n1-c1ccccc1 [ebselen] | – | 4.7
